Laboratory results as given in the supplement of paper PMC7877785.
± gives the uncertainty stated by the source. Many of these values have a large error.

Assay: self-splicing fitness, log relative to wild type (ln ratio); higher = more splicing; Tetrahymena group I intron in knt gene, E. coli kanamycin selection, DiMSum; sequences stand for … in CUCUCU…GGAGGGAAAAGUUAUCAGGCAUGCACCUGGUAGCUAGUCUUUAAACCAAUAGAUUGCAUCGGUUUAAAAGGCAAGACCGUCAAAUUGCGGGAAAGGGGUCAACAGCCGUUCAGUACCAAGUCUCAGGGGAAACUUUGAGAUGGCCUUGCAAAGGGUAUGGUAAUAAGCUGACGGACAUGGUCCUAACCACGCAGCCAAGUCCUAAGUCAACAGAUCUUCUGUUGAUAUGGAUGCAGUUCACAGACUAAAUGUCGGUCGGGGAAGAUGUAUUCUUCUCAUAAGAUAUAGUCGGACCUCUCCUUAAUGGGAGCUAGCGGAUGAAGUGAUGCAACACUGGAGCCGCUGGGAACUAAUUUGUAUGCGAAAGUAUAUUGAUUAGUUUUGGAGUACUCGUGGUCG
In short: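 Six replicate transformations of E. coli BL21(DE3) with a pET-22b(+) library were grown overnight at 37°C or 30°C. The library randomised all eight P1ex-region intron nucleotides, the intron lying in the knt kanamycin-resistance gene, and plates were LB agar with or without 25 μg/mL kanamycin plus 100 μg/mL carbenicillin, 50 μM IPTG and 0.2% rhamnose. Pooled colonies were amplicon-sequenced on an Illumina HiSeq 2500, and fitness is the DiMSum error-weighted combination of wild-type-normalised replicate fold changes, kanamycin versus none.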

UGAUAGCAAUAUUACGCGAC
self-splicing fitness (ln) (37 °C): -2.2 ± 0.78

GCGGAGCAAUAUUACGCUAA
self-splicing fitness (ln) (30 °C): -1.96 ± 1.2 | self-splicing fitness (ln) (37 °C): -2.98 ± 1.1

GCGUAGCAAUAUUACGUAUA
self-splicing fitness (ln) (30 °C): -2.15 ± 0.26 | self-splicing fitness (ln) (37 °C): -1.52 ± 0.21

UCGAAGCAAUAUUACGUAUC
self-splicing fitness (ln) (37 °C): -3.47 ± 0.52

ACACAGCAAUAUUACGUCAA
self-splicing fitness (ln) (30 °C): -2.25 ± 0.19 | self-splicing fitness (ln) (37 °C): -1.99 ± 0.14

CGUAAGCAAUAUUACGUCUU
self-splicing fitness (ln) (30 °C): -3.7 ± 0.22 | self-splicing fitness (ln) (37 °C): -1.37 ± 0.14

CGGCAGCAAUAUUACGGGCU
self-splicing fitness (ln) (30 °C): -3.81 ± 0.22 | self-splicing fitness (ln) (37 °C): -2.16 ± 0.24

AUAAAGCAAUAUUACGAGGA
self-splicing fitness (ln) (30 °C): -3.28 ± 0.23 | self-splicing fitness (ln) (37 °C): -1.74 ± 0.19

UUUCAGCAAUAUUACGCCUC
self-splicing fitness (ln) (30 °C): -1.67 ± 0.91

GCAGAGCAAUAUUACGCCUA
self-splicing fitness (ln) (30 °C): -3.13 ± 0.62

GUGGAGCAAUAUUACGACAC
self-splicing fitness (ln) (30 °C): -3.83 ± 0.73 | self-splicing fitness (ln) (37 °C): -1.6 ± 0.53

CUCGAGCAAUAUUACGCACG
self-splicing fitness (ln) (37 °C): -3.3 ± 0.52

UUGGAGCAAUAUUACGCAUC
self-splicing fitness (ln) (37 °C): -0.529 ± 0.61

ACUGAGCAAUAUUACGUUUC
self-splicing fitness (ln) (30 °C): -3.19 ± 0.27 | self-splicing fitness (ln) (37 °C): -2.6 ± 0.23

GCUUAGCAAUAUUACGGCCC
self-splicing fitness (ln) (37 °C): 0.25 ± 0.57

GUCAAGCAAUAUUACGUGGG
self-splicing fitness (ln) (30 °C): -3 ± 0.13 | self-splicing fitness (ln) (37 °C): -2.23 ± 0.2

AAAGAGCAAUAUUACGCUAU
self-splicing fitness (ln) (30 °C): -4.95 ± 1

CUUUAGCAAUAUUACGAGCU
self-splicing fitness (ln) (30 °C): -2.59 ± 0.55 | self-splicing fitness (ln) (37 °C): -2.13 ± 0.55

UGUGAGCAAUAUUACGAUUC
self-splicing fitness (ln) (30 °C): -3.16 ± 1 | self-splicing fitness (ln) (37 °C): -2.99 ± 0.61

GGAGAGCAAUAUUACGGAUG
self-splicing fitness (ln) (30 °C): -4.33 ± 0.72

CAGUAGCAAUAUUACGCCCC
self-splicing fitness (ln) (37 °C): -0.879 ± 0.58

CCGGAGCAAUAUUACGAAGC
self-splicing fitness (ln) (30 °C): -3.52 ± 1.1

GGCUAGCAAUAUUACGGGCC
self-splicing fitness (ln) (30 °C): -2.51 ± 0.56

CGUGAGCAAUAUUACGGGAC
self-splicing fitness (ln) (30 °C): -3.1 ± 0.54

ACAGAGCAAUAUUACGUACC
self-splicing fitness (ln) (30 °C): -3.47 ± 0.54 | self-splicing fitness (ln) (37 °C): -0.689 ± 0.52

UCGUAGCAAUAUUACGGCCU
self-splicing fitness (ln) (30 °C): -2.57 ± 0.55 | self-splicing fitness (ln) (37 °C): -1.03 ± 0.5

UUGUAGCAAUAUUACGAGGA
self-splicing fitness (ln) (30 °C): -2.87 ± 0.85 | self-splicing fitness (ln) (37 °C): -1.69 ± 1.2

CUCCAGCAAUAUUACGUUCG
self-splicing fitness (ln) (30 °C): -3.41 ± 0.13 | self-splicing fitness (ln) (37 °C): -2.39 ± 0.17

UGACAGCAAUAUUACGCGAG
self-splicing fitness (ln) (30 °C): -2.36 ± 0.11 | self-splicing fitness (ln) (37 °C): -2.06 ± 0.077

ACAUAGCAAUAUUACGCUCC
self-splicing fitness (ln) (30 °C): -1.62 ± 0.17 | self-splicing fitness (ln) (37 °C): -2.05 ± 0.23

AUGGAGCAAUAUUACGAUAA
self-splicing fitness (ln) (37 °C): -3.4 ± 0.59

CAUUAGCAAUAUUACGCCUA
self-splicing fitness (ln) (30 °C): -1.93 ± 0.54

CGGGAGCAAUAUUACGGACU
self-splicing fitness (ln) (37 °C): -4.18 ± 1

CGUCAGCAAUAUUACGCCUC
self-splicing fitness (ln) (30 °C): -3.25 ± 0.66

AAUGAGCAAUAUUACGACAC
self-splicing fitness (ln) (37 °C): -2.02 ± 0.66

UAGGAGCAAUAUUACGGGGG
self-splicing fitness (ln) (30 °C): -3.71 ± 0.59

UUCGAGCAAUAUUACGAAAG
self-splicing fitness (ln) (37 °C): -3.16 ± 0.74

AAGGAGCAAUAUUACGGCCG
self-splicing fitness (ln) (37 °C): -1.49 ± 0.81

ACGGAGCAAUAUUACGCACC
self-splicing fitness (ln) (30 °C): -4.59 ± 0.72 | self-splicing fitness (ln) (37 °C): -0.785 ± 0.57

GGGCAGCAAUAUUACGCCCU
self-splicing fitness (ln) (37 °C): -2.44 ± 0.76

GGAGAGCAAUAUUACGCAUG
self-splicing fitness (ln) (30 °C): -3.02 ± 0.62

CCGCAGCAAUAUUACGCCGA
self-splicing fitness (ln) (30 °C): -2.35 ± 0.19 | self-splicing fitness (ln) (37 °C): -1.42 ± 0.14

UGAGAGCAAUAUUACGGUCU
self-splicing fitness (ln) (30 °C): -3.48 ± 0.79

UACGAGCAAUAUUACGUGAA
self-splicing fitness (ln) (37 °C): -3.29 ± 0.52

GCGAAGCAAUAUUACGCGGA
self-splicing fitness (ln) (30 °C): -2.79 ± 0.76

UUGGAGCAAUAUUACGGGAU
self-splicing fitness (ln) (30 °C): -4.03 ± 0.73

GGGUAGCAAUAUUACGAACC
self-splicing fitness (ln) (37 °C): 0.875 ± 0.79

UGCCAGCAAUAUUACGGCGC
self-splicing fitness (ln) (30 °C): -3.8 ± 0.27 | self-splicing fitness (ln) (37 °C): -3.04 ± 0.23

CACUAGCAAUAUUACGGAGA
self-splicing fitness (ln) (30 °C): -3.66 ± 0.6

GUGGAGCAAUAUUACGCAAA
self-splicing fitness (ln) (30 °C): -2.28 ± 0.43 | self-splicing fitness (ln) (37 °C): -1.83 ± 0.25

GGGAAGCAAUAUUACGCGCC
self-splicing fitness (ln) (37 °C): -0.681 ± 1

AGCCAGCAAUAUUACGCCGG
self-splicing fitness (ln) (30 °C): -4.16 ± 0.73

CUUGAGCAAUAUUACGAAGG
self-splicing fitness (ln) (37 °C): -2.88 ± 0.75

CCGAAGCAAUAUUACGCGAA
self-splicing fitness (ln) (30 °C): -3.2 ± 0.76

GGGGAGCAAUAUUACGGGCG
self-splicing fitness (ln) (30 °C): -1.52 ± 1.2 | self-splicing fitness (ln) (37 °C): -2.17 ± 0.8

CACUAGCAAUAUUACGCUAC
self-splicing fitness (ln) (30 °C): -3.2 ± 0.6

CGUUAGCAAUAUUACGCCCC
self-splicing fitness (ln) (30 °C): -2.79 ± 1.2 | self-splicing fitness (ln) (37 °C): 0.0743 ± 0.81

UGAGAGCAAUAUUACGAACC
self-splicing fitness (ln) (30 °C): -2.21 ± 1.1 | self-splicing fitness (ln) (37 °C): -0.265 ± 0.76

AGUGAGCAAUAUUACGCGAG
self-splicing fitness (ln) (37 °C): -1.86 ± 0.65

AUGGAGCAAUAUUACGGAGC
self-splicing fitness (ln) (30 °C): -3.99 ± 0.6 | self-splicing fitness (ln) (37 °C): -2.26 ± 0.65
